Experimental data: the supplement of paper PMC8728848
The other results are listed elsewhere or left out.

Key:
Assay in all cases: glycan array binding signal (z-score within array); higher = stronger binding
Conditions in all cases: glycan notation: IUPAC condensed, linker removed
[1] = molecular target: Gal(b1-3)[Neu5Ac(a2-6)]GlcNAc(a1-4)Gal(b1-4)Glc
How it was run: (§1)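 The binding signal is a Z-score computed within each array and averaged over linkers. Arrays of the same protein sequence at different concentrations or buffers were also averaged together. Data originate from 3228 arrays in the Consortium for Functional Glycomics database, kept only where the protein sequence was available.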

[2] = molecular target: Gal(b1-3)[Neu5Ac(b2-6)]GlcNAc
How it was run: as §1

[3] = molecular target: Gal(b1-4)GalNAc(a1-3)[Fuc(a1-2)]Gal(b1-4)GlcNAc
How it was run: as §1

[4] = molecular target: Gal(b1-4)GalNAc(b1-3)[Fuc(a1-2)]Gal(b1-4)GlcNAc
How it was run: as §1

Gal(b1-4)Glc = molecular target: Gal(b1-4)Glc
How it was run: as §1

Gal(b1-4)Glc6S = molecular target: Gal(b1-4)Glc6S
How it was run: as §1

Gal(b1-4)GlcNAc = molecular target: Gal(b1-4)GlcNAc
How it was run: as §1

[5] = molecular target: Gal(b1-4)GlcNAc(b1-2)Man(a1-3)[Gal(b1-4)GlcNAc(b1-2)Man(a1-6)]Man(b1-4)GlcNAc(b1-4)GlcNAc
How it was run: as §1

[6] = molecular target: Gal(b1-4)GlcNAc(b1-3)Gal(b1-3)GlcNAc
How it was run: as §1

[7] = molecular target: Gal(b1-4)GlcNAc(b1-3)Gal(b1-4)Glc
How it was run: as §1

[8] = molecular target: Gal(b1-4)GlcNAc(b1-3)Gal(b1-4)GlcNAc
How it was run: as §1

[9] = molecular target: Gal(b1-4)GlcNAc(b1-3)Gal(b1-4)GlcNAc(b1-3)Gal(b1-4)GlcNAc
How it was run: as §1

[10] = molecular target: Gal(b1-4)GlcNAc(b1-3)Gal(b1-4)[Fuc(a1-3)]GlcNAc(b1-3)Gal(b1-4)[Fuc(a1-3)]GlcNAc
How it was run: as §1

[11] = molecular target: Gal(b1-4)GlcNAc(b1-3)GalNAc
How it was run: as §1

[12] = molecular target: Gal(b1-4)GlcNAc(b1-3)[Gal(b1-4)GlcNAc(b1-6)]GalNAc
How it was run: as §1

[13] = molecular target: Gal(b1-4)GlcNAc(b1-6)GalNAc
How it was run: as §1

[14] = molecular target: Gal(b1-4)GlcNAc(b1-6)[Gal(b1-3)]GalNAc
How it was run: as §1

[15] = molecular target: Gal(b1-4)GlcNAc(b1-6)[Gal(b1-3)]GlcNAc
How it was run: as §1

Gal3S(b1-3)GalNAc = molecular target: Gal3S(b1-3)GalNAc
How it was run: as §1

Gal3S(b1-3)GlcNAc = molecular target: Gal3S(b1-3)GlcNAc
How it was run: as §1

[16] = molecular target: Gal3S(b1-3)[Fuc(a1-4)]GlcNAc
How it was run: as §1

Gal3S(b1-4)Glc = molecular target: Gal3S(b1-4)Glc
How it was run: as §1

Gal3S(b1-4)Glc6S = molecular target: Gal3S(b1-4)Glc6S
How it was run: as §1

Gal3S(b1-4)GlcNAc = molecular target: Gal3S(b1-4)GlcNAc
How it was run: as §1

Gal3S(b1-4)GlcNAc6S = molecular target: Gal3S(b1-4)GlcNAc6S
How it was run: as §1

Gal3S6S(b1-4)GlcNAc = molecular target: Gal3S6S(b1-4)GlcNAc
How it was run: as §1

Gal3S6S(b1-4)GlcNAc6S = molecular target: Gal3S6S(b1-4)GlcNAc6S
How it was run: as §1

Gal4S(b1-4)GlcNAc = molecular target: Gal4S(b1-4)GlcNAc
How it was run: as §1

Gal4S6S(b1-4)GlcNAc = molecular target: Gal4S6S(b1-4)GlcNAc
How it was run: as §1

Gal6S(b1-4)Glc = molecular target: Gal6S(b1-4)Glc
How it was run: as §1

Gal6S(b1-4)Glc6S = molecular target: Gal6S(b1-4)Glc6S
How it was run: as §1

Gal6S(b1-4)GlcNAc = molecular target: Gal6S(b1-4)GlcNAc
How it was run: as §1

GalNAc(a1-3)Gal = molecular target: GalNAc(a1-3)Gal
How it was run: as §1

GalNAc(a1-3)GalNAc = molecular target: GalNAc(a1-3)GalNAc
How it was run: as §1

[17] = molecular target: GalNAc(b1-3)Gal(a1-4)Gal(b1-4)GlcNAc
How it was run: as §1

GalNAc(b1-4)GlcNAc = molecular target: GalNAc(b1-4)GlcNAc
How it was run: as §1

Glc(a1-4)Glc = molecular target: Glc(a1-4)Glc
How it was run: as §1

B1: Tim-4 (Mus musculus), Q6U7R4 (protein)
chain: MSKGLLLLWLVTELWWLYLTPAASEDTIIGFLGQPVTLPCHYLSWSQSRNSMCWGKGSCPNSKCNAELLRTDGTRIISRKSTKYTLLGKVQFGEVSLTISNTNRGDSGVYCCRIEVPGWFNDVKKNVRLELRRATTTKKPTTTTRPTTTPYVTTTTPELLPTTVMTTSVLPTTTPPQTLATTAFSTAVTTCPSTTPGSFSQETTKGSAFTTESETLPASNHSQRSMMTISTDIAVLRPTGSNPGILPSTSQLTTQKTTLTTSESLQKTTKSHQINSRQTILIIACCVGFVLMVLLFLAFLLRGKVTGANCLQRHKRPDNTEDSDSVLNDMSHGRDDEDGIFTL
Q: B1 was tested. Which “glycan array binding signal (z-score)” value [1] did it give?
A: -0.258

Q: And the “glycan array binding signal (z-score)” value [2]?
A: 0.234

Q: And the “glycan array binding signal (z-score)” value [3]?
A: -0.026

Q: And the “glycan array binding signal (z-score)” value [4]?
A: -0.661

Q: And the “glycan array binding signal (z-score)” value (Gal(b1-4)Glc)?
A: -0.168

Q: And the “glycan array binding signal (z-score)” value (Gal(b1-4)Glc6S)?
A: -0.179

Q: What about the “glycan array binding signal (z-score)” value (Gal(b1-4)GlcNAc) of the same binder?
A: -0.08

Q: What about the “glycan array binding signal (z-score)” value [5] of the same binder?
A: -0.033

Q: What about the “glycan array binding signal (z-score)” value [6] of the same binder?
A: -0.496

Q: What about the “glycan array binding signal (z-score)” value [7] of the same binder?
A: -0.207

Q: What about the “glycan array binding signal (z-score)” value [8] of the same binder?
A: -0.621

Q: And the “glycan array binding signal (z-score)” value [9]?
A: -0.396

Q: And the “glycan array binding signal (z-score)” value [10]?
A: -0.165

Q: And the “glycan array binding signal (z-score)” value [11]?
A: -0.078

Q: And the “glycan array binding signal (z-score)” value [12]?
A: -0.345

Q: And the “glycan array binding signal (z-score)” value [13]?
A: -0.533

Q: What about the “glycan array binding signal (z-score)” value [14] of the same binder?
A: 0.469

Q: What about the “glycan array binding signal (z-score)” value [15] of the same binder?
A: 0.12

Q: What about the “glycan array binding signal (z-score)” value (Gal3S(b1-3)GalNAc) of the same binder?
A: 2.34

Q: What about the “glycan array binding signal (z-score)” value (Gal3S(b1-3)GlcNAc) of the same binder?
A: -0.157

Q: What about the “glycan array binding signal (z-score)” value [16] of the same binder?
A: -0.171

Q: What about the “glycan array binding signal (z-score)” value (Gal3S(b1-4)Glc) of the same binder?
A: 1.05

Q: And the “glycan array binding signal (z-score)” value (Gal3S(b1-4)Glc6S)?
A: 1.82

Q: What about the “glycan array binding signal (z-score)” value (Gal3S(b1-4)GlcNAc) of the same binder?
A: 0.069

Q: What about the “glycan array binding signal (z-score)” value (Gal3S(b1-4)GlcNAc6S) of the same binder?
A: 0.378

Q: And the “glycan array binding signal (z-score)” value (Gal3S6S(b1-4)GlcNAc)?
A: 1.9

Q: And the “glycan array binding signal (z-score)” value (Gal3S6S(b1-4)GlcNAc6S)?
A: 0.91

Q: And the “glycan array binding signal (z-score)” value (Gal4S(b1-4)GlcNAc)?
A: -0.08

Q: What about the “glycan array binding signal (z-score)” value (Gal4S6S(b1-4)GlcNAc) of the same binder?
A: 0.4

Q: And the “glycan array binding signal (z-score)” value (Gal6S(b1-4)Glc)?
A: 0.141

Q: What about the “glycan array binding signal (z-score)” value (Gal6S(b1-4)Glc6S) of the same binder?
A: 0.552

Q: What about the “glycan array binding signal (z-score)” value (Gal6S(b1-4)GlcNAc) of the same binder?
A: -0.607

Q: And the “glycan array binding signal (z-score)” value (GalNAc(a1-3)Gal)?
A: -0.211

Q: And the “glycan array binding signal (z-score)” value (GalNAc(a1-3)GalNAc)?
A: -0.157

Q: And the “glycan array binding signal (z-score)” value [17]?
A: -0.334

Q: And the “glycan array binding signal (z-score)” value (GalNAc(b1-4)GlcNAc)?
A: -0.684

Q: What about the “glycan array binding signal (z-score)” value (Glc(a1-4)Glc) of the same binder?
A: 0.547
